The text below walks through data of the supplement of paper PMC7024190.

Structures can show the parent of a compound that is named as a salt. The list shows a part of the results. Repeats in this data set agree poorly, so a single value says little.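 Human embryonic kidney cells were transiently transfected with a plasmid bearing a Renilla luciferase gene under the HSV-TK promoter. This first-round screen tests roughly ten thousand compounds for ones that increase reporter output.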

For the test, the system named is HEK 293FT. Description: log relative Renilla luciferase luminescence (reporter expression vs reference, reference not stated) (log (base not stated)); higher = higher recombinant reporter expression. As to conditions: 10 µM; time after transfection 48 h.
In the case of `CC(=O)Nc1nnc(S(N)(=O)=O)s1` [Acetazolamide], the log was -0.0288.
With `Clc1ccc2nsnc2c1NC1=NCCN1` [Tizanidine HCl] the figure was -0.0275; with `CCCCOc1cc(C(=O)OCCN(CC)CC)ccc1N` [Benoxinate hydrochloride], 0.0638.
Turning to `C[C@]12CC[C@@H]3c4ccc(O)cc4C[C@@H](CCCCCCCCC[S+]([O-])CCCC(F)(F)C(F)(F)F)[C@H]3[C@@H]1CC[C@@H]2O` (stereo partly drawn) [Fulvestrant], the log was found to be 0.0127.
With `CO/N=C(\C(=O)N[C@@H]1C(=O)N2C(C(=O)O)=C(COC(C)=O)CS[C@H]12)c1csc(N)n1` [Cefotaxime sodium salt] the figure was 0.129.
In the case of `CN1CCN2c3ncccc3Cc3ccccc3C2C1` (stereo not drawn) [Mirtazapine] it was 0.114; in that of `CC(C)[C@H](N)C(=O)OCCOCn1cnc2c(=O)nc(N)[nH]c21` [Valacyclovir hydrochloride], 0.0241; in that of `CC1(C)O[C@@H]2C[C@H]3[C@@H]4C[C@H](F)C5=CC(=O)C=C[C@]5(C)[C@@]4(F)[C@@H](O)C[C@]3(C)[C@]2(C(=O)CO)O1` [Fluocinolone acetonide], 0.0824.
On to `COc1cc(NS(=O)(=O)c2ccc(N)cc2)ncn1` [Sulfamonomethoxine], for which the log was -0.238.
In the case of `Cc1cc(C)nc(NS(=O)(=O)c2ccc(N)cc2)n1` [Sulfamethazine sodium salt] it was 0.0449.
In the case of `CN(C(=O)CN(CCO)CC(=O)N(C)C(C)(C)Cc1ccccc1)C(C)(C)Cc1ccccc1` [Oxethazaine] it was -0.1; in that of `COC(=O)N/N=C/c1c[n+]([O-])c2ccccc2[n+]1[O-]` [Carbadox], -0.00526; in that of `CC(C(O)c1ccc(O)cc1)N1CCC(Cc2ccccc2)CC1` (stereo not drawn) [Ifenprodil tartrate], 0.127.
Consider `COc1ccc(Cl)cc1C(=O)NCCc1ccc(S(=O)(=O)NC(=O)NC2CCCCC2)cc1` [Glibenclamide], for which the log was determined as 0.177.
In the case of `CC#C[C@]1(O)CC[C@H]2[C@@H]3CCC4=CC(=O)CCC4=C3[C@@H](c3ccc(N(C)C)cc3)C[C@@]21C` [Mifepristone] it was 0.0967; in that of `CCCOc1ccccc1-c1nc2[nH]nnc2c(=O)[nH]1` [Zaprinast], 0.0943; in that of `CCCCC1C(=O)N(c2ccccc2)N(c2ccc(O)cc2)C1=O` (stereo not drawn) [Oxyphenbutazone], 0.128.
In the case of `N[C@H]1CONC1=O` [(S)-(-)-Cycloserine] it was 0.131; in that of `CCN(CC)C(=O)Nc1ccc(OCC(O)CNC(C)(C)C)c(C(C)=O)c1` (stereo not drawn) [Celiprolol HCl], -0.0311; in that of `COc1cc2nc(N3CCN(C(=O)C4COc5ccccc5O4)CC3)nc(N)c2cc1OC` (stereo not drawn) [Doxazosin mesylate], -0.0393.
For `Cc1cc(C(C)(C)C)cc(C)c1CC1=NCCN1` [Xylometazoline hydrochloride], the log was determined as 0.131.
With `CCN(CCCCOC(=O)c1ccc(OC)c(OC)c1)C(C)Cc1ccc(OC)cc1` (stereo not drawn) [Mebeverine hydrochloride] the figure was 0.122.
In the case of `CCN(CC)CCOCCOC(=O)C1(c2ccccc2)CCCC1` [Carbetapentane citrate] it was 0.106; in that of `Cc1c(N)c(=O)n(-c2ccccc2)n1C` [Ampyrone], -0.024; in that of `NC[C@H]1O[C@H](O[C@H]2[C@H](O)[C@@H](O[C@H]3O[C@H](CO)[C@@H](O)[C@H](N)[C@H]3O)[C@H](N)C[C@@H]2N)[C@H](N)C[C@@H]1O` [Tobramycin], -0.41.
Regarding `C=CCOc1ccccc1OCC(O)CNC(C)C` (stereo not drawn) [Oxprenolol hydrochloride], the log is -0.0188.
For the compound `CCOC(=O)/C=C(C)/C=C/C=C(C)/C=C/c1c(C)cc(OC)c(C)c1C` [Etretinate], the log was -0.0878.
With `CC(C)C(=O)c1c(C(C)C)nn2ccccc12` [Ibudilast], the log was found to be 0.000654.
In the case of `OC(CCN1CCCC1)(c1ccccc1)C1CCCCC1` (stereo not drawn) [Procyclidine hydrochloride] it was -0.0131.
With `CC(C)NCC(O)COc1cccc2[nH]ccc12` (stereo not drawn) [Pindolol] the figure was -0.0328.
In the case of `CC(CN(C)C)CN1c2ccccc2CCc2ccccc21` (stereo not drawn) [Trimipramine maleate salt] it was -0.139; in that of `C=C1C(=O)O[C@H]2[C@H]1CC/C(C)=C/CC[C@@]1(C)O[C@@H]21` [Parthenolide], -0.0681.
For the compound `CCCCOc1ccc(C(=O)CCN2CCCCC2)cc1` [Dyclonine hydrochloride], the log was -0.0733.
In the case of `CC(C)(C)CC(C)(C)c1ccc(OCCOCC[N+](C)(C)Cc2ccccc2)cc1` [Benzethonium chloride] it was -1.09.
For `CN1[C@@H]2CC[C@H]1C[C@@H](OC(=O)C(O)c1ccccc1)C2` (mixture of isomers) [Homatropine hydrobromide (R,S)], the log was found to be 0.0878.
For the compound `Cn1nnc2c(C(N)=O)ncn2c1=O` [Temozolomide], the log was -0.0364.
On to `CC(C)(C)NC(=O)[C@H]1CC[C@H]2[C@@H]3CC[C@H]4NC(=O)C=C[C@]4(C)[C@H]3CC[C@]12C` [Finasteride], for which the log was found to be 0.0464.
In the case of `Nc1nc(N)c2nc(-c3ccccc3)c(N)nc2n1` [Triamterene] it was 0.116; in that of `Cc1c(Nc2ncccc2C(=O)O)cccc1C(F)(F)F` [Flunixin meglumine], -0.072; in that of `CC[C@H](c1ccc(O)cc1)[C@@H](CC)c1ccc(O)cc1` [Hexestrol], -0.615.
In the case of `CC1(C)O[C@@H]2C[C@H]3[C@@H]4C[C@H](F)C5=CC(=O)C=C[C@]5(C)[C@H]4[C@@H](O)C[C@]3(C)[C@]2(C(=O)CO)O1` [Flunisolide] it was -0.153; in that of `CN(Cc1cc(Br)cc(Br)c1N)C1CCCCC1` [Bromhexine hydrochloride], -0.0219.
In the case of `C[C@H](CS)C(=O)N1CCC[C@H]1C(=O)O` [Captopril] it was 0.134; in that of `NCCc1ccc(O)c(O)c1` [Dopamine hydrochloride], 0.0303.
For the compound `CCN1CCCC1CNC(=O)c1cc(S(N)(=O)=O)ccc1OC` (stereo not drawn) [Sulpiride], the log worked out at 0.134.
With `CCCCc1oc2ccccc2c1C(=O)c1cc(I)c(OCCN(CC)CC)c(I)c1` [Amiodarone hydrochloride] the figure was -0.624.
For the compound `O=C(O)c1cccnc1` [Niacin], the log was -0.954.
Turning to `Cc1cccc(N(C)C(=S)Oc2ccc3ccccc3c2)c1` [Tolnaftate], the log was found to be 0.0878.
In the case of `O=c1[nH]c(=O)n([C@H]2C[C@H](O)[C@@H](CO)O2)cc1I` [Idoxuridine] it was 0.187; in that of `CC1(C)O[C@@H]2C[C@H]3[C@@H]4C[C@H](F)C5=CC(=O)CC[C@]5(C)[C@H]4[C@@H](O)C[C@]3(C)[C@]2(C(=O)CO)O1` [Flurandrenolide], -0.0288; in that of `NNC(=O)c1ccncc1` [Isoniazid], -0.0293.
With `CCN(CC)CCN[C@@H](C(=O)OCCC(C)C)c1ccccc1` [Camylofine chlorhydrate] the figure was 0.0159; with `CN1CCCN=C1/C=C/c1cccs1` [Pyrantel tartrate], 0.113.
In the case of `CCC[C@@H]1C[C@@H](C(=O)N[C@@H]([C@H]2O[C@H](SC)[C@H](O)[C@@H](O)[C@H]2O)[C@@H](C)O)N(C)C1` [Lincomycin hydrochloride] it was -1.3; in that of `C#C[C@]1(O)CC[C@H]2[C@@H]3CCC4=Cc5oncc5C[C@]4(C)[C@H]3CC[C@@]21C` [Danazol], 0.054; in that of `CCOc1ccc(Cc2nccc3cc(OCC)c(OCC)cc23)cc1OCC` [Ethaverine hydrochloride], -0.603.
Regarding `O=C(Nc1ccc([N+](=O)[O-])cc1Cl)c1cc(Cl)ccc1O` [Niclosamide], the log was -1.22.
Regarding `CC12CC3CC(C)(C1)CC(N)(C3)C2` [Memantine Hydrochloride], the log was -0.147.
With `CC(C)NNC(=O)c1ccncc1` [Iproniazide phosphate] the figure was 0.054.
`CCN(CC)CCNC(=O)c1cc(Br)c(N)cc1OC` [Bromopride]: the log was 0.1.
As to `OC(CCN1CCCCC1)(c1ccccc1)c1ccccc1` [Pridinol methanesulfonate salt], the log was 0.122.
As to `C[C@H](CCC(=O)O)[C@H]1CC[C@H]2[C@@H]3C(=O)C[C@@H]4CC(=O)CC[C@]4(C)[C@H]3CC(=O)[C@]12C` [Dehydrocholic acid], the log stood at 0.0361.
On to `CCOC(=O)C1=C(C)NC(C)=C(C(=O)OC)C1c1cccc(Cl)c1Cl` (stereo not drawn) [Felodipine], for which the log was -1.02.
In the case of `O=C1c2c(O)ccc(O)c2C(=O)c2c(NCCNCCO)ccc(NCCNCCO)c21` [Mitoxantrone dihydrochloride] it was -1.38; in that of `O=C(NC(Cc1cc(=O)[nH]c2ccccc12)C(=O)O)c1ccc(Cl)cc1` (stereo not drawn) [Rebamipide], 0.0806.
On to `Nc1ncn(C2OC(CO)C(O)C2O)c(=O)n1` (stereo not drawn) [Azacytidine-5], for which the log was 0.00954.
For the compound `CC(C)(C)NC[C@H](O)COc1cccc2c1CCCC2=O` [(-) -Levobunolol hydrochloride], the log is -0.0369.
With `C[N+](C)(C)CCOC(N)=O` [Carbachol] the figure was -0.00216; with `O=C(O)CCC(=O)c1ccc(-c2ccccc2)cc1` [Fenbufen], 0.0159.
For `N[C@@H](Cc1ccc(O)c(O)c1)C(=O)O` [Levodopa], the log is -0.00821.
Take `CN1CCN2c3ccccc3Cc3ccccc3C2C1` (stereo not drawn) [Mianserine hydrochloride]: the log worked out at 0.0331.
Consider `CCC(C)(C)C(=O)O[C@H]1C[C@@H](C)C=C2C=C[C@H](C)[C@H](CC[C@@H]3C[C@@H](O)CC(=O)O3)[C@H]21` [Simvastatin], for which the log is -0.174.
With `CC(=O)Oc1ccc(C(c2ccc(OC(C)=O)cc2)c2ccccn2)cc1` [Bisacodyl] the figure was -0.22; with `CCCc1nn(C)c2c(=O)[nH]c(-c3cc(S(=O)(=O)N4CCN(C)CC4)ccc3OCC)nc12` [Sildenafil], 0.00502.
For `CCCNC(C)(C)COC(=O)c1ccccc1` [Meprylcaine hydrochloride], the log was 0.0655.
In the case of `NC1CCN(c2c(F)cc3c(=O)c(C(=O)O)cn(C4CC4)c3c2Cl)C1` (stereo not drawn) [Clinafloxacin], the log is -0.085.
For the compound `CCC1(C)CC(=O)NC1=O` (stereo not drawn) [Ethosuximide], the log is -0.0382.
Take `C[N+](C)(CCOc1ccccc1)Cc1ccccc1.O=C([O-])c1cc2ccccc2cc1O` [Bephenium hydroxynaphthoate]: the log worked out at 0.166.
